US9700516B2, “Compositions and methods for reducing overdose” (priority 2014, dated 2017)
Further values from the same series stand in other lists.

Experiment: Effect of alkalinizing agents on the pH of a solution of 0.1 N HCl with a starting pH of 2.0
Format: physicochemical
Procedure: Various alkalinizing agents were added to a solution of 0.1 N HCl with a starting pH of 2.0 and the pH of the solution was tested at different time points.

**Q.** With `[O]=[Mg]` [MgO, magnesium oxide] as the molecule, how does the pH (80 mg powder/200 ml, 1 min) read?
**A.** 2.50

**Q.** And the pH (80 mg powder/200 ml, 2 min)?
**A.** 4.09

**Q.** And the pH (80 mg powder/200 ml, 3 min)?
**A.** 5.72

**Q.** And the pH (80 mg powder/200 ml, 50 min)?
**A.** 10.13

**Q.** What about the pH (80 mg powder/200 ml, 60 min) of the same molecule?
**A.** 10.13

**Q.** And the pH (80 mg, Granular/200 ml, 1 min)?
**A.** 2.17

**Q.** And the pH (80 mg, Granular/200 ml, 2 min)?
**A.** 2.30

**Q.** And the pH (80 mg, Granular/200 ml, 3 min)?
**A.** 2.45

**Q.** What about the pH (80 mg, Granular/200 ml, 40 min) of the same molecule?
**A.** 9.47

**Q.** And the pH (80 mg, Granular/200 ml, 50 min)?
**A.** 9.47

**Q.** What about the pH (80 mg, Granular/200 ml, 60 min) of the same molecule?
**A.** 9.47

**Q.** What about the pH (100 mg powder/200 ml, 1 min) of the same molecule?
**A.** 2.37

**Q.** What about the pH (100 mg powder/200 ml, 2 min) of the same molecule?
**A.** 2.37

**Q.** What about the pH (100 mg powder/200 ml, 3 min) of the same molecule?
**A.** 2.37

**Q.** What about the pH (100 mg powder/200 ml, 50 min) of the same molecule?
**A.** 9.02

**Q.** And the pH (100 mg powder/200 ml, 60 min)?
**A.** 9.02

**Q.** What about the pH (120 mg powder/200 ml, 1 min) of the same molecule?
**A.** 4.45

**Q.** And the pH (120 mg powder/200 ml, 2 min)?
**A.** 5.50

**Q.** And the pH (120 mg powder/200 ml, 3 min)?
**A.** 6.01

**Q.** And the pH (120 mg powder/200 ml, 40 min)?
**A.** 8.21

**Q.** What about the pH (120 mg powder/200 ml, 50 min) of the same molecule?
**A.** 8.21

**Q.** What about the pH (120 mg powder/200 ml, 60 min) of the same molecule?
**A.** 8.21

**Q.** With `[Mg+2].[OH-].[OH-]` [magnesium hydroxide] as the molecule, how does the pH (60 mg per 320 mL, 0 min) read?
**A.** 2.03

**Q.** And the pH (60 mg per 320 mL, 1 min)?
**A.** 2.17

**Q.** And the pH (60 mg per 320 mL, 30 min)?
**A.** 2.50

**Q.** And the pH (60 mg per 320 mL, 40 min)?
**A.** 2.50

**Q.** And the pH (60 mg per 320 mL, 50 min)?
**A.** 2.50

**Q.** What about the pH (60 mg per 320 mL, 60 min) of the same molecule?
**A.** 2.53

**Q.** What about the pH (60 mg per 500 mL, 0 min) of the same molecule?
**A.** 2.01

**Q.** And the pH (60 mg per 500 mL, 1 min)?
**A.** 2.06

**Q.** What about the pH (60 mg per 500 mL, 30 min) of the same molecule?
**A.** 2.19

**Q.** What about the pH (60 mg/200 ml, 1 min) of the same molecule?
**A.** 2.50

**Q.** And the pH (60 mg/200 ml, 2 min)?
**A.** 2.66

**Q.** And the pH (60 mg/200 ml, 3 min)?
**A.** 2.83

**Q.** And the pH (60 mg/200 ml, 4 min)?
**A.** 2.92

**Q.** What about the pH (60 mg/200 ml, 5 min) of the same molecule?
**A.** 2.96

**Q.** And the pH (60 mg/200 ml, 6 min)?
**A.** 2.99

**Q.** What about the pH (60 mg/200 ml, 7 min) of the same molecule?
**A.** 2.99

**Q.** And the pH (60 mg/200 ml, 8 min)?
**A.** 3.00

**Q.** What about the pH (60 mg/200 ml, 9 min) of the same molecule?
**A.** 3.00

**Q.** What about the pH (60 mg/200 ml, 10 min) of the same molecule?
**A.** 3.00

**Q.** And the pH (60 mg/200 ml, 20 min)?
**A.** 3.01

**Q.** What about the pH (60 mg/200 ml, 30 min) of the same molecule?
**A.** 3.01

**Q.** What about the pH (60 mg/200 ml, 40 min) of the same molecule?
**A.** 3.01

**Q.** And the pH (60 mg/200 ml, 50 min)?
**A.** 3.01

**Q.** What about the pH (60 mg/200 ml, 60 min) of the same molecule?
**A.** 3.01

**Q.** What about the pH (71 mg/200 ml, 1 min) of the same molecule?
**A.** 2.45

**Q.** What about the pH (71 mg/200 ml, 2 min) of the same molecule?
**A.** 2.83

**Q.** And the pH (71 mg/200 ml, 3 min)?
**A.** 3.18

**Q.** And the pH (71 mg/200 ml, 4 min)?
**A.** 3.48

**Q.** What about the pH (71 mg/200 ml, 5 min) of the same molecule?
**A.** 3.70

**Q.** And the pH (71 mg/200 ml, 6 min)?
**A.** 3.91

**Q.** What about the pH (71 mg/200 ml, 7 min) of the same molecule?
**A.** 4.13

**Q.** What about the pH (71 mg/200 ml, 8 min) of the same molecule?
**A.** 4.31

**Q.** What about the pH (71 mg/200 ml, 9 min) of the same molecule?
**A.** 4.48

**Q.** What about the pH (71 mg/200 ml, 10 min) of the same molecule?
**A.** 4.63

**Q.** What about the pH (71 mg/200 ml, 20 min) of the same molecule?
**A.** 5.40

**Q.** And the pH (71 mg/200 ml, 30 min)?
**A.** 5.72

**Q.** What about the pH (71 mg/200 ml, 40 min) of the same molecule?
**A.** 6.05

**Q.** What about the pH (71 mg/200 ml, 50 min) of the same molecule?
**A.** 6.73

**Q.** What about the pH (71 mg/200 ml, 60 min) of the same molecule?
**A.** 7.08

**Q.** What about the pH (81 mg/200 ml, 1 min) of the same molecule?
**A.** 2.50

**Q.** And the pH (81 mg/200 ml, 2 min)?
**A.** 3.01

**Q.** What about the pH (81 mg/200 ml, 3 min) of the same molecule?
**A.** 3.66

**Q.** And the pH (81 mg/200 ml, 4 min)?
**A.** 5.01

**Q.** What about the pH (81 mg/200 ml, 5 min) of the same molecule?
**A.** 5.30

**Q.** And the pH (81 mg/200 ml, 6 min)?
**A.** 5.50

**Q.** What about the pH (81 mg/200 ml, 7 min) of the same molecule?
**A.** 5.65

**Q.** And the pH (81 mg/200 ml, 8 min)?
**A.** 5.80

**Q.** And the pH (81 mg/200 ml, 9 min)?
**A.** 5.87

**Q.** What about the pH (81 mg/200 ml, 10 min) of the same molecule?
**A.** 5.92

**Q.** What about the pH (81 mg/200 ml, 20 min) of the same molecule?
**A.** 6.60

**Q.** What about the pH (81 mg/200 ml, 30 min) of the same molecule?
**A.** 6.92

**Q.** What about the pH (81 mg/200 ml, 40 min) of the same molecule?
**A.** 7.25

**Q.** What about the pH (81 mg/200 ml, 50 min) of the same molecule?
**A.** 7.51

**Q.** And the pH (81 mg/200 ml, 60 min)?
**A.** 8.00

**Q.** And the pH (90 mg per 320 mL, 0 min)?
**A.** 2.05

**Q.** What about the pH (90 mg per 320 mL, 1 min) of the same molecule?
**A.** 2.19

**Q.** And the pH (90 mg per 320 mL, 30 min)?
**A.** 3.37

**Q.** And the pH (90 mg per 320 mL, 40 min)?
**A.** 3.35

**Q.** And the pH (90 mg per 320 mL, 50 min)?
**A.** 3.35

**Q.** What about the pH (90 mg per 320 mL, 60 min) of the same molecule?
**A.** 3.36

**Q.** What about the pH (100 mg per 320 mL, 0 min) of the same molecule?
**A.** 2.03

**Q.** What about the pH (100 mg per 320 mL, 1 min) of the same molecule?
**A.** 2.15

**Q.** And the pH (100 mg per 320 mL, 30 min)?
**A.** 6.75

**Q.** What about the pH (100 mg per 320 mL, 40 min) of the same molecule?
**A.** 6.92

**Q.** What about the pH (100 mg per 320 mL, 50 min) of the same molecule?
**A.** 7.01

**Q.** And the pH (100 mg per 320 mL, 60 min)?
**A.** 7.09

**Q.** And the pH (100 mg per 500 mL, 0 min)?
**A.** 2.03

**Q.** And the pH (100 mg per 500 mL, 1 min)?
**A.** 2.10

**Q.** And the pH (100 mg per 500 mL, 30 min)?
**A.** 2.41

**Q.** What about the pH (100 mg per 500 mL, 40 min) of the same molecule?
**A.** 2.41

**Q.** What about the pH (100 mg per 500 mL, 50 min) of the same molecule?
**A.** 2.41

**Q.** What about the pH (100 mg per 500 mL, 60 min) of the same molecule?
**A.** 2.41

**Q.** What about the pH (100 mg/200 ml, 1 min) of the same molecule?
**A.** 2.50

**Q.** And the pH (100 mg/200 ml, 2 min)?
**A.** 3.56

**Q.** What about the pH (100 mg/200 ml, 3 min) of the same molecule?
**A.** 5.25

**Q.** What about the pH (100 mg/200 ml, 4 min) of the same molecule?
**A.** 5.58

**Q.** What about the pH (100 mg/200 ml, 5 min) of the same molecule?
**A.** 5.80

**Q.** And the pH (100 mg/200 ml, 6 min)?
**A.** 5.97

**Q.** What about the pH (100 mg/200 ml, 7 min) of the same molecule?
**A.** 6.10

**Q.** And the pH (100 mg/200 ml, 8 min)?
**A.** 6.22

**Q.** And the pH (100 mg/200 ml, 9 min)?
**A.** 6.34

**Q.** And the pH (100 mg/200 ml, 10 min)?
**A.** 6.43

**Q.** And the pH (100 mg/200 ml, 20 min)?
**A.** 7.70

**Q.** What about the pH (100 mg/200 ml, 30 min) of the same molecule?
**A.** 8.69

**Q.** And the pH (100 mg/200 ml, 40 min)?
**A.** 8.90

**Q.** What about the pH (100 mg/200 ml, 50 min) of the same molecule?
**A.** 9.10

**Q.** And the pH (100 mg/200 ml, 60 min)?
**A.** 9.10

**Q.** And the pH (120 mg per 320 mL, 0 min)?
**A.** 2.05

**Q.** And the pH (120 mg per 320 mL, 1 min)?
**A.** 2.25

**Q.** And the pH (120 mg per 320 mL, 30 min)?
**A.** 9.23

**Q.** What about the pH (120 mg per 320 mL, 40 min) of the same molecule?
**A.** 9.27

**Q.** And the pH (120 mg per 320 mL, 50 min)?
**A.** 9.24

**Q.** What about the pH (120 mg per 500 mL, 0 min) of the same molecule?
**A.** 2.01

**Q.** What about the pH (120 mg per 500 mL, 1 min) of the same molecule?
**A.** 2.10

**Q.** What about the pH (120 mg per 500 mL, 30 min) of the same molecule?
**A.** 2.60

**Q.** And the pH (120 mg per 500 mL, 40 min)?
**A.** 2.60

**Q.** What about the pH (180 mg per 500 mL, 0 min) of the same molecule?
**A.** 2.05

**Q.** And the pH (180 mg per 500 mL, 1 min)?
**A.** 2.34

**Q.** And the pH (180 mg per 500 mL, 30 min)?
**A.** 9.14

**Q.** What about the pH (180 mg per 500 mL, 40 min) of the same molecule?
**A.** 9.16

**Q.** And the pH (180 mg per 500 mL, 50 min)?
**A.** 9.19

**Q.** And the pH (180 mg per 500 mL, 60 min)?
**A.** 9.20

**Q.** And the pH (200 mg per 500 mL, 0 min)?
**A.** 2.03

**Q.** What about the pH (200 mg per 500 mL, 1 min) of the same molecule?
**A.** 2.19

**Q.** And the pH (240 mg per 500 mL, 0 min)?
**A.** 2.00

**Q.** What about the pH (240 mg per 500 mL, 1 min) of the same molecule?
**A.** 2.17
